Source: paper PMC5472812
No constants are given. Whether binding was seen depends on the method and setting. In cells and extracts the contact can be indirect. Here binding means that the protein was enriched with, or labelled near, the bait; the list need not be complete.

Amino acid sequences for entries named in this document (tags omitted). A change or cut given only in a name is not applied to a line headed by its entry.
UniProt A0A0H3C5U2: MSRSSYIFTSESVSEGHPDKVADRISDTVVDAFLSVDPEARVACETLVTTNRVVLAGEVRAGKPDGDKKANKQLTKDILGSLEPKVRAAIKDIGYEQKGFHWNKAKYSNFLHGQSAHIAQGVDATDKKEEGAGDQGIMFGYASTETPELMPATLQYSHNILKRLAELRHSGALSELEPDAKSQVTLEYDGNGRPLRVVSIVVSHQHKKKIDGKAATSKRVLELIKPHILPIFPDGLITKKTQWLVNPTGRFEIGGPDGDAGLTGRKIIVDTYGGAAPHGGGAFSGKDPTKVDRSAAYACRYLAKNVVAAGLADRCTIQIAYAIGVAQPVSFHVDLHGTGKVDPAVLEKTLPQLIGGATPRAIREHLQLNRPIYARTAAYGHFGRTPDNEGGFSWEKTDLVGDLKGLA
UniProt Q9A749: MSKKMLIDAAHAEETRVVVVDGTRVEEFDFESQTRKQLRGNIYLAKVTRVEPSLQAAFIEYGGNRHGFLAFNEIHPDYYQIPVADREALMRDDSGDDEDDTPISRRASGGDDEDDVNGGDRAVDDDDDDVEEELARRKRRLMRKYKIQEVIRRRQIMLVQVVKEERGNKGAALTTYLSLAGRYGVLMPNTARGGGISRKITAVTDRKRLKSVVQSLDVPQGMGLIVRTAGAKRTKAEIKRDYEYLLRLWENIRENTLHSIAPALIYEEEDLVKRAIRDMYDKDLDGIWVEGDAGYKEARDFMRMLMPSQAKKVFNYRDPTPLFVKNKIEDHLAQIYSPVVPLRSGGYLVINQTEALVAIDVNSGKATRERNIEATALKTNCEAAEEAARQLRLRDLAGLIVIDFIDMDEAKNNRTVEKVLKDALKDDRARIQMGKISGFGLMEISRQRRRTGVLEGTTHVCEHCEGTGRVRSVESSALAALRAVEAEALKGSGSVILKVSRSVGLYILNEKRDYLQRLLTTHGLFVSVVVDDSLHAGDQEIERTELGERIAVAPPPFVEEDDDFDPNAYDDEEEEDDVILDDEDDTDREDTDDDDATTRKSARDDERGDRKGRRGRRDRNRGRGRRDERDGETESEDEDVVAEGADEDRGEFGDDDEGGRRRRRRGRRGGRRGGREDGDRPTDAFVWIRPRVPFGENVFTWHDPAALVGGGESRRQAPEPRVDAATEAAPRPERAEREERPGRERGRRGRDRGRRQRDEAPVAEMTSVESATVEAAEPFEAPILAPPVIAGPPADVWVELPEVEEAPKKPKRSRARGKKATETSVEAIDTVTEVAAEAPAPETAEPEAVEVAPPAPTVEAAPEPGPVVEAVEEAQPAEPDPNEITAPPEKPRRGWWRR
UniProt A0A0H3C8I9: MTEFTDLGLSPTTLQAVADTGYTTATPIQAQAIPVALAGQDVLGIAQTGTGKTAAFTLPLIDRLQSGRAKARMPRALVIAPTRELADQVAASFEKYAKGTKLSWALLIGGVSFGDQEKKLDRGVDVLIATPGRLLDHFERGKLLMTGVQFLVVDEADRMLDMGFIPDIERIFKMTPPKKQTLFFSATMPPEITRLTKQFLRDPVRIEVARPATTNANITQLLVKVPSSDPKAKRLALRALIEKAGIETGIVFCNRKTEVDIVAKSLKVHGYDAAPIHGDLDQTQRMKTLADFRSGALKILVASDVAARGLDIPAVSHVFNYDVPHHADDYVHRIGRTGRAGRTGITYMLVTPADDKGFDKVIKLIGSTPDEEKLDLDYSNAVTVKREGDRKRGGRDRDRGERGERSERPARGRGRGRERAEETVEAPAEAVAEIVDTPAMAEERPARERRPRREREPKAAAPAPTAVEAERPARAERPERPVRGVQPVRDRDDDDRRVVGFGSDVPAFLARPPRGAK
UniProt A0A0H3CAA2: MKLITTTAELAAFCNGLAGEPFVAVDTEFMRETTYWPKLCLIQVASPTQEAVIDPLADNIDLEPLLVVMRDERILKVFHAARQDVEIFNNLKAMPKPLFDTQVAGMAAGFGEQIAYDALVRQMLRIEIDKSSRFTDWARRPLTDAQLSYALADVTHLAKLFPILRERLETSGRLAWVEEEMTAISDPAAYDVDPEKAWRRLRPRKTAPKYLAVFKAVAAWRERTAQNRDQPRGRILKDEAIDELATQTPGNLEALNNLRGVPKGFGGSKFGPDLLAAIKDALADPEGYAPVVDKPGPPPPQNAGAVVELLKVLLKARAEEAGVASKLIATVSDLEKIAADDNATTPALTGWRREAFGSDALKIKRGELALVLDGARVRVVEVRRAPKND
UniProt A0A0H3C4B5: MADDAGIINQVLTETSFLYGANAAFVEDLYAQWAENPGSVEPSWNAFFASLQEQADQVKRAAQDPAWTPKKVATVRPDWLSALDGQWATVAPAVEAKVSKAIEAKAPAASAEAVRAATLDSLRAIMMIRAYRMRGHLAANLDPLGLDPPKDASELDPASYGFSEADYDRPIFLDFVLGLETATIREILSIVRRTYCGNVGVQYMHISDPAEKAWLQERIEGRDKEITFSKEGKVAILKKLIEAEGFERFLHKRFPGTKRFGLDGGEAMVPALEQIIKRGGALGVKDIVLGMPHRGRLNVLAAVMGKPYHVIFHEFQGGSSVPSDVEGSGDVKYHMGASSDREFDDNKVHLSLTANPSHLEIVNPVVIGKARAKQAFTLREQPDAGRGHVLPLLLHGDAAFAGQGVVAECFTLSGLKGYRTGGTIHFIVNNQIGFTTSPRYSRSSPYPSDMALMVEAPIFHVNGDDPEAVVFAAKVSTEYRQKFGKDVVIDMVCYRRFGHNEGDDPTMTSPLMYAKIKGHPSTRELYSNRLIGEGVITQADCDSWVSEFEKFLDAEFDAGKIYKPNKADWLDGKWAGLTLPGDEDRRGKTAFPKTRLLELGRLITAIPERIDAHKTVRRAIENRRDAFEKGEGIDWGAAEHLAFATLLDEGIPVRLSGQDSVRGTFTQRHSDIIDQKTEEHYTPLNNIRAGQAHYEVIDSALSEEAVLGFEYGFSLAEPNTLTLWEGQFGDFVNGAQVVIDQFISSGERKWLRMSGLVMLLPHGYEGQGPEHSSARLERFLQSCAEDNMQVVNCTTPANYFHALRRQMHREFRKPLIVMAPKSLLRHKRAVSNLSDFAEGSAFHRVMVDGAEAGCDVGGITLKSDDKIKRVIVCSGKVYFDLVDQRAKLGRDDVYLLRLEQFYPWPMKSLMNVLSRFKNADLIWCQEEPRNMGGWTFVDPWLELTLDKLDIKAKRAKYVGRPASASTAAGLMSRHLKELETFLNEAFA
UniProt A0A0H3CG88: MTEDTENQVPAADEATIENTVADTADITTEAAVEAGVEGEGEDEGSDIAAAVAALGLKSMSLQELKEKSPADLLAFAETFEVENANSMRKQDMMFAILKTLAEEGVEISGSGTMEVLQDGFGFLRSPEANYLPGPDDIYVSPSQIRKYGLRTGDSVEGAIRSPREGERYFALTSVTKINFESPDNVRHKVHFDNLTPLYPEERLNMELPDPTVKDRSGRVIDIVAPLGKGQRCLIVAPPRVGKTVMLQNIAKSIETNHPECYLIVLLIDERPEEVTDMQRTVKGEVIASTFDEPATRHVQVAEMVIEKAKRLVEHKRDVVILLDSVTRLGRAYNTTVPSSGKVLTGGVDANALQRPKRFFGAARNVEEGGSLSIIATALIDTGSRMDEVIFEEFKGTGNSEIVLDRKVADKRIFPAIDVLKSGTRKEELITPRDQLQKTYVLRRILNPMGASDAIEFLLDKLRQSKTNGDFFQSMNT
UniProt A0A0H3C896: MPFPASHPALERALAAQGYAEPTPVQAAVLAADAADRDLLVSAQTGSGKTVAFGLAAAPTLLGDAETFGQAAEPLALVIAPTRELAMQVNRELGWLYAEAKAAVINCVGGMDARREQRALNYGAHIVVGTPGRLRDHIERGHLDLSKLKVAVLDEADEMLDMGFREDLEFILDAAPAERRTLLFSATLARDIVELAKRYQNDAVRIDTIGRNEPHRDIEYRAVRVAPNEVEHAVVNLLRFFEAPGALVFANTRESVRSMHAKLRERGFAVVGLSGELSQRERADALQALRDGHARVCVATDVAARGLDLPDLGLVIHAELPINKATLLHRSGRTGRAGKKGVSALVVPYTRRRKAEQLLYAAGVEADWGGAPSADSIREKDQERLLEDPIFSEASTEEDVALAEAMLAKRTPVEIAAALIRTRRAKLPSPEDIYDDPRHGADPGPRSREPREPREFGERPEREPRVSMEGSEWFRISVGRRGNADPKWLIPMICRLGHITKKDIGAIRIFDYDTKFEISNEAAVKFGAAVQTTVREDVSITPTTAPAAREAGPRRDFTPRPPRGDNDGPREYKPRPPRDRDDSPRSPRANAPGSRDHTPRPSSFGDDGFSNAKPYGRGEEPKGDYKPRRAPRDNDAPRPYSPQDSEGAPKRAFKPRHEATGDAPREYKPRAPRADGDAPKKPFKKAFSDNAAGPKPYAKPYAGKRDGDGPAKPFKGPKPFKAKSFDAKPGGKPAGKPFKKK
UniProt A0A0H3CCW5: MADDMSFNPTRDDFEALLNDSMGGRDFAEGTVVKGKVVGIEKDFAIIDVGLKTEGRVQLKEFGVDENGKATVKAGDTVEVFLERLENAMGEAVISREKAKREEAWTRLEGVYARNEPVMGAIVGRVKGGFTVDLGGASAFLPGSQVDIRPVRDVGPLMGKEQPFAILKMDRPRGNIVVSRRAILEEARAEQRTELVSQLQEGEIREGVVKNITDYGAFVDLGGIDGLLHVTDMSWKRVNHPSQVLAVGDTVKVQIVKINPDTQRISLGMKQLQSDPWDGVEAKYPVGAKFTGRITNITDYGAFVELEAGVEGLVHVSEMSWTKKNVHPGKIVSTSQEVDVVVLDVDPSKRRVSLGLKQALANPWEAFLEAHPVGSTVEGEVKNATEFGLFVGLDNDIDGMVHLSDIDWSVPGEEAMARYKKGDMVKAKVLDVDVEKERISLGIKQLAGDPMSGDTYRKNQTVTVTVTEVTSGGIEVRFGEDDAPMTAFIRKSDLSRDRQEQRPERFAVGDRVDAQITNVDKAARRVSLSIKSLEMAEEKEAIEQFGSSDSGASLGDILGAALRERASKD
UniProt A0A0H3C629: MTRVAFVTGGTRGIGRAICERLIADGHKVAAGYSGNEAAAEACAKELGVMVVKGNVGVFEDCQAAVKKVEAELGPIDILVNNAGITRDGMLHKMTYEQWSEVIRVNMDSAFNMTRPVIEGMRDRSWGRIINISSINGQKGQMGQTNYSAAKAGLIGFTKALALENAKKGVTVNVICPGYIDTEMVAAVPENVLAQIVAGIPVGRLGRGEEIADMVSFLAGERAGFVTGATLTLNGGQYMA

target: FLAG-tagged RhlE (Caulobacter crescentus NA1000); assay: affinity purification with mass spectrometry; FLAG-RhlE captured from clarified C. crescentus MM84 lysate on anti-FLAG M2 affinity gel (2 h, 4°C; 20 mM Tris-HCl pH 7.5, 250 mM NaCl, 5 mM EDTA), eluted with FLAG peptide, SDS-PAGE, bands identified by MALDI fingerprinting; cells grown at 30°C or 15°C

binding, binds:
methionine adenosyltransferase (CCNA_00048) (from UniProt A0A0H3C5U2) (enzyme)
RNase E (from UniProt Q9A749) (enzyme)
DEAD-box RNA helicase RhlB (from UniProt A0A0H3C8I9) (enzyme)

target: FLAG-tagged RNase E (Caulobacter crescentus NA1000) (UniProt Q9A749); assay: affinity purification with mass spectrometry; FLAG-RNase E captured from clarified C. crescentus lysate on anti-FLAG M2 affinity gel (2 h, 4°C; 20 mM Tris-HCl pH 7.5, 250 mM NaCl, 5 mM EDTA), eluted with FLAG peptide, SDS-PAGE, bands identified by MALDI fingerprinting; cells grown at 30°C or 15°C; wild type or ΔrhlB; 15°C extracts also pretreated with RNase A

binding, binds:
methionine adenosyltransferase (CCNA_00048) (from UniProt A0A0H3C5U2) (enzyme)
RNase D (from UniProt A0A0H3CAA2) (enzyme)
2-oxoglutarate dehydrogenase E1 component (CCNA_00342) (from UniProt A0A0H3C4B5) (enzyme)
transcription terminator Rho (CCNA_03876) (from UniProt A0A0H3CG88) (enzyme)
DEAD-box RNA helicase CCNA_01546 (from UniProt A0A0H3C896) (enzyme)
small subunit ribosomal protein S1 (CCNA_03702) (from UniProt A0A0H3CCW5)
acetoacetyl coenzyme A (acetoacetyl-CoA) reductase (CCNA_00545) (from UniProt A0A0H3C629)
